PubChem BioAssay AID1053208, Peter MacCallum Cancer Centre – 2014
The deposit covers about 17,000 reagents; below is a random part of them. 788 of them (4.7%) count as active. 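Calls rest on z-score classes alone; an extra cut-off of viability at most 70% of control was not applied to them.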 Unmarked entries are inactive. Not all columns of the deposit are shown. Reagent sequences are not shown.

Screen: 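Find knock-downs that sensitise mouse osteosarcoma cells to doxorubicin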 (primary screen)
Cells: mouse osteosarcoma cells, early-passage culture from an engineered mouse model of fibroblastic bone tumour
Reagent: siRNA pool against mouse genes, 40 nM
Timing: about 120 h (48 h before drug, then 72 h with drug)
Treatment: doxorubicin 100 nM for 72 h, roughly 30-40% inhibitory dose
Measurement: 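Luminescent ATP signal taken as viability with or without 100 nM doxorubicin for 72 h; mean of two wells set against non-targeting siRNA and turned into robust z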
Scale: viability z-score with doxorubicin: higher = more viable cells under doxorubicin; viability z-score without drug: higher = more viable cells with knock-down alone
Active means: 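Called active if knock-down leaves viability unchanged without drug (z within -2 to 2) but lowers it with doxorubicin (z at or under -2)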

What did the screen give for Ei24 (etoposide induced 2.4 mRNA)?
combined z-score class: no change with or without drug; viability z-score with doxorubicin: -1.12; viability z-score without drug: -0.17

For Ap1ar, what does the deposit list?
combined z-score class: no change with or without drug; viability z-score with doxorubicin: 1.69; viability z-score without drug: -0.51

For Adamtsl1 (ADAMTS-like 1), what does the deposit list?
combined z-score class: no change with or without drug; viability z-score with doxorubicin: -0.9; viability z-score without drug: 0.67

What is on record for Hexim1 (hexamethylene bis-acetamide inducible 1)?
combined z-score class: low cell count with doxorubicin only (active); viability z-score with doxorubicin: -2.7; viability z-score without drug: -0.34

What did the screen give for Fgl1 (fibrinogen-like protein 1)?
combined z-score class: no change with or without drug; viability z-score with doxorubicin: -0.45; viability z-score without drug: -0.17

With Mtmr14 (myotubularin related protein 14), what was measured?
combined z-score class: no change with or without drug; viability z-score with doxorubicin: 0.67; viability z-score without drug: 1.85

What is on record for Bmp1 (bone morphogenetic protein 1)?
combined z-score class: no change with or without drug; viability z-score with doxorubicin: -1.12; viability z-score without drug: 0.17

With Ier5l (immediate early response 5-like), how do the results read?
combined z-score class: no change with or without drug; viability z-score with doxorubicin: 0.11; viability z-score without drug: -0.51

For Rspo2 (R-spondin 2), what was measured?
combined z-score class: no change with or without drug; viability z-score with doxorubicin: 0.34; viability z-score without drug: 1.69

What is on record for Cdpf1 (cysteine rich, DPF motif domain containing 1)?
combined z-score class: high cell count without drug only; viability z-score with doxorubicin: -1.91; viability z-score without drug: 2.19

With Or7g16 (olfactory receptor family 7 subfamily G member 16), what does the deposit list?
combined z-score class: no change with or without drug; viability z-score with doxorubicin: -0.22; viability z-score without drug: -1.18

With Phf13 (PHD finger protein 13), how do the results read?
combined z-score class: no change with or without drug; viability z-score with doxorubicin: -0.67; viability z-score without drug: 0.84

What did the screen give for Shisa7 (shisa family member 7)?
combined z-score class: low cell count with doxorubicin only (active); viability z-score with doxorubicin: -2.47; viability z-score without drug: 0.51

For Nme2 (NME/NM23 nucleoside diphosphate kinase 2), what was measured?
combined z-score class: no change with or without drug; viability z-score with doxorubicin: 0; viability z-score without drug: 0.67

For Rnf10 (ring finger protein 10), what does the deposit list?
combined z-score class: low cell count with and without drug; viability z-score with doxorubicin: -2.25; viability z-score without drug: -2.19

What is on record for Cd3g (CD3 antigen, gamma polypeptide)?
combined z-score class: no change with or without drug; viability z-score with doxorubicin: -0.22; viability z-score without drug: 0.17

What is on record for Pcdhga10 (protocadherin gamma subfamily A, 10)?
combined z-score class: low cell count with doxorubicin only (active); viability z-score with doxorubicin: -3.37; viability z-score without drug: -1.18

Which result is listed for Adrb1 (adrenergic receptor, beta 1)?
combined z-score class: no change with or without drug; viability z-score with doxorubicin: 0.56; viability z-score without drug: 0.67

With Rasal1 (RAS protein activator like 1 (GAP1 like)), what was measured?
combined z-score class: high cell count with doxorubicin only; viability z-score with doxorubicin: 2.25; viability z-score without drug: 0.51

With Or9k7 (olfactory receptor family 9 subfamily K member 7), what does the deposit list?
combined z-score class: no change with or without drug; viability z-score with doxorubicin: -0.45; viability z-score without drug: -0.17

Which result is listed for Sorcs1 (sortilin-related VPS10 domain containing receptor 1)?
combined z-score class: low cell count with and without drug; viability z-score with doxorubicin: -2.59; viability z-score without drug: -2.87

How did the screen score Esyt3 (extended synaptotagmin-like protein 3)?
combined z-score class: no change with or without drug; viability z-score with doxorubicin: -0.22; viability z-score without drug: 1.52

With Msto1, what does the deposit list?
combined z-score class: no change with or without drug; viability z-score with doxorubicin: -0.56; viability z-score without drug: -0.51

What did the screen give for Nmnat2 (nicotinamide nucleotide adenylyltransferase 2)?
combined z-score class: no change with or without drug; viability z-score with doxorubicin: -0.34; viability z-score without drug: 0

For Txk (TXK tyrosine kinase), what does the deposit list?
combined z-score class: no change with or without drug; viability z-score with doxorubicin: -0.34; viability z-score without drug: 0.84

What is on record for Ppp1r12a (protein phosphatase 1, regulatory subunit 12A)?
combined z-score class: no change with or without drug; viability z-score with doxorubicin: 0.56; viability z-score without drug: 0.17

With Tulp2 (TUB like protein 2), what was measured?
combined z-score class: no change with or without drug; viability z-score with doxorubicin: 0.11; viability z-score without drug: -0.17

With Radil (Ras association and DIL domains), what does the deposit list?
combined z-score class: no change with or without drug; viability z-score with doxorubicin: -1.35; viability z-score without drug: -0.84

In a second layout: results already given
Esyt3 (extended synaptotagmin-like protein 3)
- combined z-score class: no change with or without drug
- viability z-score with doxorubicin: -0.22
- viability z-score without drug: 1.52

Msto1
- combined z-score class: no change with or without drug
- viability z-score with doxorubicin: -0.56
- viability z-score without drug: -0.51

Nmnat2 (nicotinamide nucleotide adenylyltransferase 2)
- combined z-score class: no change with or without drug
- viability z-score with doxorubicin: -0.34
- viability z-score without drug: 0

Txk (TXK tyrosine kinase)
- combined z-score class: no change with or without drug
- viability z-score with doxorubicin: -0.34
- viability z-score without drug: 0.84
